Primary screen of a compound library

Protein sequences, listed by entry. Tags and fused reporters are not part of them.
UniProt E9BF75, entry or part of it: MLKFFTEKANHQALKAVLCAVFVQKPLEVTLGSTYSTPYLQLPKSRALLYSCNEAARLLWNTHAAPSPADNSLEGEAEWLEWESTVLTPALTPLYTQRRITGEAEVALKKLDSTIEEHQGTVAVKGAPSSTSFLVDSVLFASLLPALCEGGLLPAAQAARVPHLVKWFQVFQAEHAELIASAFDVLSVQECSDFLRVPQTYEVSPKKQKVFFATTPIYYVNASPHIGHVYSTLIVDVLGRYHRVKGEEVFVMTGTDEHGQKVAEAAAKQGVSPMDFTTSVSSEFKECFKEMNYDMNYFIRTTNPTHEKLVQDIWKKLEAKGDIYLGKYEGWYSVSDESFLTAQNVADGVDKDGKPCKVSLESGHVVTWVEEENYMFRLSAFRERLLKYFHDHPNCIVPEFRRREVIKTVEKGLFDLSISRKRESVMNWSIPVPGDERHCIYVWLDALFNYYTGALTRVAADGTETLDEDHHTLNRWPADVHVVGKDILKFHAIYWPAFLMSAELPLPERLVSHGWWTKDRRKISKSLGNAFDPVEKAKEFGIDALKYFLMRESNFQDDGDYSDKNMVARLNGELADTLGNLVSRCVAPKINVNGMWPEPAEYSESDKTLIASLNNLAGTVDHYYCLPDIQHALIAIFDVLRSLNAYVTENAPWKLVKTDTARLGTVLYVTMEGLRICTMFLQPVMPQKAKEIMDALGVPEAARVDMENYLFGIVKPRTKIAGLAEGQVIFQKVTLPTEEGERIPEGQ

All values are in %.
The controls that fix the scale are not given in the record; negative values are as filed.
Compounds were drawn at random from those tested, without regard to their results.

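Primary screen of methionyl-tRNA synthetase; the read-out is not stated. Target: Methionyl-tRNA synthetase (putative), Leishmania donovani (UniProt E9BF75). The test concentration is not given. Values are per cent inhibition. Size under these conditions: about 68,000 compounds, about 24 of them at 50% or above in at least one test.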

SMILES,Inhibition
Cc1nnc([C@@H]2C[C@H]3CN(C(=O)c4c(C)noc4C)C[C@H]3O2)[nH]1,14.86%
O=C(NC1CC1)c1cc(C(F)(F)F)cc(C(=O)NC2CC2)n1,3.774%
COCCNc1cc(-c2cccc(C(=O)O)c2C)c2cc[nH]c2n1,26.25%
Cc1nc(C(=O)N2CCN(S(C)(=O)=O)CC2)c(-c2ccccc2Cl)s1,0%
O=C1CN(c2ccc(CNC(=O)NCCO)cc2)CCN1,15.67%
CCc1nnc(CN(C)CC2CCCCC2)o1,12.31%
COCc1ncc(CN(Cc2ccncc2)Cc2ccc(C)s2)cn1,4.872%
CS(=O)(=O)N1CCC(c2cncc(Cl)n2)CC1,-3.723%
CCCN(CCn1c(=O)oc2ccccc21)CC1CC1,9.747%
CCc1nc(C2CCCN2C(=O)c2ncoc2CC)no1 (configuration not stated),9.202%
Cc1nn(C)c(C)c1C1CCCN1CC(=O)N(C)c1nccs1 (configuration not stated),4.336%
Cc1cc(C)n(-c2cncc(NCCNC(=O)CC3CCCC3)n2)n1,10.78%
CC(C)SCC(=O)NCc1cc2n(n1)CCCN(C1CCCCC1)C2,10.7%
CC(C)c1noc(C(C)N2CCC(c3nc4ccccc4[nH]3)CC2)n1 (configuration not stated),16.11%
CCC1CN(C)c2ccccc2CN1CCn1cncn1 (configuration not stated),10.61%
O=S(=O)(N1CCCC1)N1C[C@@H](c2cccc(F)c2)[C@@H]2NCCCCC[C@H]21,12.22%
Cc1cc(S(C)(=O)=O)c(C)c(S(=O)(=O)NC2CCCC2)c1,5.435%
Cc1cncc(NC(=O)c2ccc(CN3CCC(CO)CC3)cc2)c1,19.24%
O=S1(=O)CCCN1Cc1coc(-c2cccs2)n1,9.735%
O=C(Cn1cc(C2CC2)nn1)N(Cc1cccs1)CC1CCCO1 (configuration not stated),14.25%
COc1ccccc1CC(C)CC(=O)O (configuration not stated),9.84%
CN1CCN(CCn2cnc3c(F)cccc3c2=O)CC1,11.02%
COCCN1CC(C(=O)NCc2cccnc2-n2cccn2)CC1=O (configuration not stated),17.13%
O=C(NCc1ccccc1)[C@H]1C[C@@H]2CN(C(=O)NC3CCCC3)C[C@H]1O2,2.614%
COCC(=O)NS(=O)(=O)c1ccc(F)c(F)c1,14.4%
CN1CCCC(c2ccnc(C(=O)NC3CC3)c2)C1 (configuration not stated),14.15%
Cc1cc(C)cc(CN2C[C@@H]3OCCN(CC(=O)N(C)C)[C@@H]3C2)c1,11.43%
Cc1nc(CN2CCc3ncnc(C4CC4)c3CC2)cs1,13.65%
CCc1cc(=O)[nH]c(-c2ccc(NCCC(C)O)nc2)n1 (configuration not stated),10.45%
CCOc1cccc(C(C)NC(=O)N2CCC3(CC2)OCCO3)c1 (configuration not stated),8.629%
Cc1ccc2cc(C(=O)N3CCN(S(C)(=O)=O)CC3)[nH]c2c1,7.117%
c1cnc(N2CCCn3c(nnc3Cn3cccn3)C2)nc1,13.59%
COCCO[C@@H]1CCN(C(=O)c2ccnnc2)[C@H]1Cc1cnn(C)c1,16.17%
Cc1ncnc2c1CCN(C(=O)N(C)C)CC2,4.156%
O=C(C[C@@H]1COC[C@H]2CN(C(=O)c3cccnc3)C[C@@H]12)N1CCCC1,18.4%
Cc1cc(C)c2c(c1)C1(CC(=O)Nc3c1cnn3C(C)C)C(=O)N2 (configuration not stated),10.37%
O=S(=O)(c1ccccc1Cl)N1CCCC(c2ncc[nH]2)C1 (configuration not stated),18.96%
O=C(C1=CCCC1)N1CCC[C@]2(C[C@@H](Oc3ncccc3F)CO2)C1,6.5%
CCc1nc(C)c(CN2CCOC(CCCC(C)C)C2)[nH]1 (configuration not stated),8.207%
CCc1noc(C)c1C(=O)N1CCN(c2nc(C)cc(OC)n2)CC1,12.4%
Nc1nc(Cn2ccnc2-c2cc(CN3CCCC3)cs2)cs1,10.31%
O=C(CCn1ccc2cc(Br)ccc21)NCc1ccc(C(=O)O)cc1,9.155%
CCN1CC(C(=O)NCCOc2ccc3c(c2)OCO3)CC1=O (configuration not stated),15.92%
Cc1cnn(C2CCCN(C(=O)Cc3ccc(C#N)cc3)C2)c1 (configuration not stated),18.79%
CNC(=O)N1CCOC(C)(c2cnn(C)c2)C1 (configuration not stated),1.918%
Cc1cc(C(=O)N2CCNC(=O)C2)c(C)n1CC(F)(F)F,4.532%
O=C(Cn1ccc(=O)cc1)NCc1ccc2sccc2c1,1.961%
O=C(O)Cn1nc(C2CC2)c2c(-c3cccs3)ccnc21,9.14%
Fc1cccnc1N1CCOCC2(CCCN(c3nncs3)C2)C1 (configuration not stated),1.961%
Cc1nc(CN2CCC3(CCN(Cc4nccn4C)CC3)C2=O)cs1,13.97%
O=S(=O)(c1ccc(F)cc1)n1cc(Cl)cn1,20.12%
Cc1cc(NC2CC3(CCN(Cc4csc(C)n4)C3)C2)ncn1 (configuration not stated),7.862%
CC(C)Oc1cccc(-c2nc3c([nH]2)CCCNC3=O)c1,22.64%
Cn1cc(CN2CCCC(CCc3ccccc3C(F)(F)F)C2)cn1 (configuration not stated),9.946%
CN(Cc1cnn(C)c1)C(=O)CCC(=O)c1ccc2c(c1)OCCO2,15.57%
Cc1nc(C)n(CC2CCCN2Cc2nc(-c3ccsc3)no2)n1 (configuration not stated),12.57%
CC(C)(NCc1cccc(C#N)c1)c1ccc2c(c1)OCO2,13.71%
OCCCNc1cccc(COC2CCCCC2)c1,7.619%
Cc1cc(C(=O)N2CCCCC2C)ccc1NCCCO (configuration not stated),10.93%
Cc1n[nH]cc1CNC1(Cc2ccc(Br)cc2)CCCCC1,14.49%
CN(C)C1CC2(CCN(C(=O)NC3CC3)CC2)c2ccccc21 (configuration not stated),6.723%
O=C(Cc1ccsc1)N1C[C@@H]2OCCN(CC3CC3)[C@@H]2C1,5.263%
CSc1nc2cc(C)n(CC(=O)NC(C)C)c2c(=O)n1CC(C)C,15.53%
Cc1cccc(C(=O)N2CCCCC2c2ccc(CN(C)C)cc2)n1 (configuration not stated),3.704%
CCOc1ccc(CNC2CCCN(c3cccnn3)C2)cc1OC (configuration not stated),3.093%
Cc1noc(C)c1CN1CC[C@H]2C[C@H](c3ccncn3)O[C@@H]2C1,11.33%
CC(C)=CCC/C(C)=C/CN1CCN(C)C2(CCNC(=O)CC2)C1 (configuration not stated),11.17%
O=C(c1ccn(COc2ccc(F)cc2)n1)N1CCCC1,1.256%
Cc1[nH]nc2ncc(C(=O)N3CCCC3c3noc(C(C)C)n3)cc12 (configuration not stated),13.04%
CCc1ccc(CN2CCN(C(=O)C(C)C)[C@@H]3CS(=O)(=O)C[C@@H]32)cc1,1.031%
CC(C)c1nccn1CCCNC(=O)c1ccc(-c2cncnc2)nc1,15.61%
COc1ccc(S(=O)(=O)N2CC(CC(=O)O)c3ccccc32)cc1 (configuration not stated),1.863%
CC(C(=O)N1CCn2cncc2C1)N1C[C@@H](C)O[C@@H](C)C1 (some centres not stated),6.15%
COCC(=O)N1CCCC2(CCN(c3ccsc3)C2=O)C1 (configuration not stated),-1.045%
COc1ccc(S(=O)(=O)NC(=O)COc2ccc3c(c2)CCC3)cc1,-3.741%
Cc1ncc(C(=O)N2CCCC(C(=O)c3nccn3C)C2)c(O)n1 (configuration not stated),5.625%
CCCn1ncc(CN(Cc2cccnc2)Cc2cccs2)c1C,9.449%
CC(=O)Nc1ncc(S(=O)(=O)Nc2ccc(F)cc2)s1,2.075%
CC(NC(=O)CNc1cc2c(cc1Cl)NC(=O)CO2)c1ccco1 (configuration not stated),5.744%
COc1ccccc1COCC(O)CN(C)Cc1cccc(Cl)c1 (configuration not stated),11.66%
CCOCC(O)CN1CCN(C(=O)c2ccccc2Cl)CC1 (configuration not stated),14.29%
CC(C)CN1CCO[C@H]2CCN(c3cnccn3)CC[C@@H]21,4.918%
O=C(N1CCSCC1)C1(O)Cc2ccccc2C1,6.407%
CC(C)N1CCO[C@H]2CN(C(=O)c3ccc(N(C)C)cc3)C[C@H]21,15.02%
Cc1nn(-c2ccccc2)c2nc(C(C)(C)CN3CCN(C)CC3)[nH]c12,13.97%
O=C(N[C@H]1CN(c2nc(CO)cs2)C[C@@H]1C1CC1)C1CCCCC1,-5.444%
COCCN1CCC(Cc2cncc(-c3ccc(C(=O)O)cc3)n2)CC1,2.604%
COc1ccnc(N2CCN(C(=O)Cc3csc(C)n3)CC2)n1,21.55%
CC(C)N(C)[C@@H]1CCN(Cc2ccoc2)[C@H]1Cc1ccccc1,14.86%
Cc1cc(-c2cc(F)ccc2C(=O)O)nc(C2CCCCN2C(C)C)n1 (configuration not stated),6.215%
CC(C)OCCC(=O)N(C)CCCc1cc(-c2ccccc2)no1,-3.492%

The last 7 entries again:

For Cc1nn(-c2ccccc2)c2nc(C(C)(C)CN3CCN(C)CC3)[nH]c12 the result was 13.97%.
For O=C(N[C@H]1CN(c2nc(CO)cs2)C[C@@H]1C1CC1)C1CCCCC1 the result was -5.444%.
For COCCN1CCC(Cc2cncc(-c3ccc(C(=O)O)cc3)n2)CC1 the result was 2.604%.
For COc1ccnc(N2CCN(C(=O)Cc3csc(C)n3)CC2)n1 the result was 21.55%.
For CC(C)N(C)[C@@H]1CCN(Cc2ccoc2)[C@H]1Cc1ccccc1 the result was 14.86%.
For Cc1cc(-c2cc(F)ccc2C(=O)O)nc(C2CCCCN2C(C)C)n1 (configuration not stated) the result was 6.215%.
For CC(C)OCCC(=O)N(C)CCCc1cc(-c2ccccc2)no1 the result was -3.492%.

Data taken from ChEMBL document CHEMBL3988442, “University of Dundee, Small-Polar-MMV Screening Library” (2021).